PubChem BioAssay AID1259254 – NCATS – 2017
Assay: 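Genome-wide screen for genes that prevent DNA re-replication in cancer cells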 (primary screen). Cell system: human HCT116 colorectal cancer cells. Knock-down reagent: single siRNA against human genes. Duration: 3 days. Measured: 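Nuclei stained with Hoechst and imaged; cell-cycle phase assigned by DNA content; G2 share scaled per plate, non-targeting siRNA 0%, GMNN siRNA 100%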. Direction: G2 robust z-score and G2 cells, % of GMNN control: higher = more G2 cells, more excess DNA replication; raw share of cells in G2: higher = larger share of cells with G2 DNA content. Hit rule: 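Active siRNAs have a G2 robust z of 5 or more median absolute deviations over the median, which in these data means about 38% or higher of GMNN control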.
This is a random part of about 59,000 reagents. Over the whole deposit, about 1,550 (2.6%) are marked active. 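G2 share is only a proxy for re-replication; each gene was hit by three separate siRNAs, and active genes were retested.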 Raw values are not corrected between plates. Reagents against one gene are numbered here. Not stated in the record: the amount of reagent.

gene,reagent,G2 robust z-score,"G2 cells, % of GMNN control",raw share of cells in G2 (%),Outcome
PCMTD1,1,0.268,4.85,6.31,inactive
PCMTD1,2,-0.713,-2.05,4.72,inactive
PCMTD1,3,0.486,6.38,7.71,inactive
AGPAT4 (1-acylglycerol-3-phosphate O-acyltransferase 4),1,-0.249,1.22,4.84,inactive
AGPAT4 (1-acylglycerol-3-phosphate O-acyltransferase 4),2,-0.314,0.758,4.71,inactive
AGPAT4 (1-acylglycerol-3-phosphate O-acyltransferase 4),3,-1.44,-7.18,3.29,inactive
FOXS1 (forkhead box S1),1,-0.305,0.82,3.95,inactive
FOXS1 (forkhead box S1),2,4.02,31.2,16.6,inactive
FOXS1 (forkhead box S1),3,1.64,14.5,10.8,inactive
MRPS15 (mitochondrial ribosomal protein S15),1,-0.0738,2.45,5.65,inactive
MRPS15 (mitochondrial ribosomal protein S15),2,-0.152,1.9,5.46,inactive
MRPS15 (mitochondrial ribosomal protein S15),3,0.684,7.78,4.75,inactive
MAK (male germ cell associated kinase),1,-0.573,-1.07,5.26,inactive
MAK (male germ cell associated kinase),2,1.09,10.6,8.99,inactive
MAK (male germ cell associated kinase),3,-0.932,-3.59,2.76,inactive
GRIK1 (glutamate ionotropic receptor kainate type subunit 1),1,0.281,4.94,7.09,inactive
GRIK1 (glutamate ionotropic receptor kainate type subunit 1),2,-0.634,-1.49,4.28,inactive
GRIK1 (glutamate ionotropic receptor kainate type subunit 1),3,0.417,5.9,6.68,inactive
SLC29A1,1,0.641,7.48,6.32,inactive
SLC29A1,2,1.47,13.3,10.1,inactive
SLC29A1,3,-0.441,-0.135,5.21,inactive
"TLE6 (TLE family member 6, subcortical maternal complex member)",1,-0.588,-1.17,2.06,inactive
"TLE6 (TLE family member 6, subcortical maternal complex member)",2,-0.33,0.648,4.71,inactive
"TLE6 (TLE family member 6, subcortical maternal complex member)",3,0.826,8.78,8.14,inactive
EFEMP2 (EGF-like fibulin extracellular matrix protein 2),1,3.78,29.6,14,inactive
EFEMP2 (EGF-like fibulin extracellular matrix protein 2),2,2.33,19.3,10.3,inactive
EFEMP2 (EGF-like fibulin extracellular matrix protein 2),3,-1.29,-6.09,3.4,inactive
S1PR1 (sphingosine-1-phosphate receptor 1),1,-0.966,-3.83,4.47,inactive
S1PR1 (sphingosine-1-phosphate receptor 1),2,1.28,12,8.71,inactive
S1PR1 (sphingosine-1-phosphate receptor 1),3,-0.0107,2.89,4.16,inactive
DDR2 (discoidin domain receptor tyrosine kinase 2),1,0.378,5.63,7.47,inactive
DDR2 (discoidin domain receptor tyrosine kinase 2),2,-0.838,-2.93,4.42,inactive
DDR2 (discoidin domain receptor tyrosine kinase 2),3,-0.878,-3.21,2.89,inactive
"SPATA31E2P (SPATA31 subfamily E member 2, pseudogene)",1,2.36,19.5,10.5,inactive
"SPATA31E2P (SPATA31 subfamily E member 2, pseudogene)",2,-0.607,-1.3,2.63,inactive
"SPATA31E2P (SPATA31 subfamily E member 2, pseudogene)",3,2.2,18.4,10.7,inactive
SLC35E4,1,0.417,5.9,6.01,inactive
SLC35E4,2,-0.355,0.471,3.47,inactive
SLC35E4,3,-0.745,-2.27,3.27,inactive
TMPRSS3 (transmembrane serine protease 3),1,-0.225,1.39,6.18,inactive
TMPRSS3 (transmembrane serine protease 3),2,-0.948,-3.7,3.26,inactive
TMPRSS3 (transmembrane serine protease 3),3,16.7,121,49.2,active
CNOT9 (CCR4-NOT transcription complex subunit 9),1,-0.547,-0.882,4.74,inactive
CNOT9 (CCR4-NOT transcription complex subunit 9),2,0.00961,3.04,5.1,inactive
CNOT9 (CCR4-NOT transcription complex subunit 9),3,-0.678,-1.8,2.71,inactive
TEDC2 (tubulin epsilon and delta complex 2),1,-0.601,-1.26,3.92,inactive
TEDC2 (tubulin epsilon and delta complex 2),2,0.66,7.61,7.63,inactive
TEDC2 (tubulin epsilon and delta complex 2),3,-0.938,-3.64,1.38,inactive

Part of the list above, reformatted:
| gene | reagent | G2 robust z-score | G2 cells, % of GMNN control | raw share of cells in G2 (%) | Outcome |
| --- | --- | --- | --- | --- | --- |
| AGPAT4 (1-acylglycerol-3-phosphate O-acyltransferase 4) | 3 | -1.44 | -7.18 | 3.29 | inactive |
| FOXS1 (forkhead box S1) | 1 | -0.305 | 0.82 | 3.95 | inactive |
| FOXS1 (forkhead box S1) | 2 | 4.02 | 31.2 | 16.6 | inactive |
